# Measurements from patent US20250345446A1 (Draupnir Bio ApS, priority 2022, published 2025).
# By UniProt entry, the sequences of proteins in these tests, tags left out. Chains listed by the source or under a name are the forms on record and can include a tag or linker. Residues count along the entry.
# UniProt Q99523, 34-756 with tags or gaps V650M: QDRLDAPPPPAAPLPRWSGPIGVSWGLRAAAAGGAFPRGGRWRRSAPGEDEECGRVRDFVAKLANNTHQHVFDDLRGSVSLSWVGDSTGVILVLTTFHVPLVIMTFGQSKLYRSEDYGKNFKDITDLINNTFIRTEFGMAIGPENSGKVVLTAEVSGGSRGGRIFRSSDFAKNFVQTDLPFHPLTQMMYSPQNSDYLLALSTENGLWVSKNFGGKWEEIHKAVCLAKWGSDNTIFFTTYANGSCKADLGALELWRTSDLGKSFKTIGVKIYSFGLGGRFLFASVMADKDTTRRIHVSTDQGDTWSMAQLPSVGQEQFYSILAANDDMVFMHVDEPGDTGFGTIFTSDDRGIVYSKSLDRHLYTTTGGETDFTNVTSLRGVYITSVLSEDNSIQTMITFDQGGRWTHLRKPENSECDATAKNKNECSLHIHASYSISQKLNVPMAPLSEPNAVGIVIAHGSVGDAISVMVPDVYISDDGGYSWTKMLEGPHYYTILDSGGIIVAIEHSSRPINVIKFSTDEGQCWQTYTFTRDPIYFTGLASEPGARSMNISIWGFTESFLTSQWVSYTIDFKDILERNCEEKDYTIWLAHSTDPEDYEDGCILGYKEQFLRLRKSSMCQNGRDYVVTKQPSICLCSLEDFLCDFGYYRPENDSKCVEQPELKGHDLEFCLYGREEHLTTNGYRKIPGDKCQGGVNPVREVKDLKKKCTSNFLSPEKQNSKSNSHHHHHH
# UniProt Q99523, 78-756 with tags or gaps V650M limits assumed: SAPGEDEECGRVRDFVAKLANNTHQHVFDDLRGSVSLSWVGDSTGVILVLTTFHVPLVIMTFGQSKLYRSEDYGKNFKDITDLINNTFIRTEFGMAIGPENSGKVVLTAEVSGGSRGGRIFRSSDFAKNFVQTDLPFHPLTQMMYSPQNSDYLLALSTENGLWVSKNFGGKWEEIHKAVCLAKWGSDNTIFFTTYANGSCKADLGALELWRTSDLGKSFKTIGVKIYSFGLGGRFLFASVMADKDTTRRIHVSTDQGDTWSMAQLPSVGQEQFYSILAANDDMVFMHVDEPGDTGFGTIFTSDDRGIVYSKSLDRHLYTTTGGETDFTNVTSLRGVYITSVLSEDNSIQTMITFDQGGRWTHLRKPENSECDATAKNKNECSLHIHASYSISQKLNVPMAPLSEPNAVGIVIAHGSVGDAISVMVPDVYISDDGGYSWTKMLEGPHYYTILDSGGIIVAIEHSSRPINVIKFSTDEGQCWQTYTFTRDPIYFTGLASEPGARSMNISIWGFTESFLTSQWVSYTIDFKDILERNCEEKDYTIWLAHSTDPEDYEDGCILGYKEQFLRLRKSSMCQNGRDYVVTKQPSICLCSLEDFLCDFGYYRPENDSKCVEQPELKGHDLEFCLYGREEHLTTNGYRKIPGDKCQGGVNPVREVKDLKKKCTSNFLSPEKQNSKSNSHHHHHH
# UniProt P22629, 25-183 limits assumed: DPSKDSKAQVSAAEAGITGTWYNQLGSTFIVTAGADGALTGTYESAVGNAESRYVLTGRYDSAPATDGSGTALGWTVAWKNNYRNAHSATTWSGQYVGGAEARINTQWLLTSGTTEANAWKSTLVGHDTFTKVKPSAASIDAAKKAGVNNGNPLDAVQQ
# Legend:
# [1] = target: soluble ectodomain of sortilin-6his (Homo sapiens, UniProt Q99523, V650M); experiment: MST binding to soluble ectodomain of sortilin-6his
# [2] = target: streptavidin, bifunctional compound and sortilin-6his (UniProt P22629+Q99523, V650M); conditions: streptavidin-d2 and sortilin-6His
# [3] = tested on: HEK293 cells expressing full length sortilin receptor; experiment: Cellular uptake of NA650 in HEK293/sortilin cells; conditions: 3 h incubation, 9.8 nM to 10 μM, NA650 100 nM
"KD score, binding to sortilin (Kd) ([1]; Table 1, biotin-linker-peptide bifunctional compounds, MST)",SMILES,"KD score, binding to sortilin (Kd) [1]","binding to sortilin-6his in MST (in words) ([1]; MST, fluorescent sortilin-6his (100 nM))",proximity induced HTRF ratio as function of compound concentration (in words) [2],"cell associated FI signal, response to concentration series (in words) [3]"
no binding,O=C(O)CNC(=O)CNC(=O)[C@H](CO)NC(=O)CNC(=O)CNC(=O)CNC(=O)CNC(=O)[C@H](CO)NC(=O)CNC(=O)CNC(=O)CNC(=O)CNC(=O)[C@H](CO)NC(=O)CNC(=O)CNC(=O)CCCC[C@@H]1SC[C@@H]2NC(=O)N[C@@H]21,–,–,–,–
–,CC(C)C[C@H](NC(=O)[C@H](CC(C)C)NC(=O)[C@H](CCC(N)=O)NC(=O)[C@H](CCCNC(=N)N)NC(=O)CNC(=O)CNC(=O)[C@H](CO)NC(=O)CNC(=O)CNC(=O)CNC(=O)CNC(=O)[C@H](CO)NC(=O)CNC(=O)CNC(=O)CNC(=O)CNC(=O)[C@H](CO)NC(=O)CNC(=O)CNC(=O)CCCC[C@@H]1SC[C@@H]2NC(=O)N[C@@H]21)C(N)=O,no binding,incapable of binding,did not induce dose-dependent increase in HTRF ratio,bell-shaped response

# Where two headings read alike, the source gives them in different places. The match of structure and compound is tentative.
